# From the supplement of paper PMC3334620
# In all, about 33,000 sequences were measured (“E-score (-0.5 to 0.5)”: median about -0.015, highest 2% from about 0.3 on). The list shows a part of the results.
# Biological target: T1, Abf1 (UniProt P14164)
# T1 sequence: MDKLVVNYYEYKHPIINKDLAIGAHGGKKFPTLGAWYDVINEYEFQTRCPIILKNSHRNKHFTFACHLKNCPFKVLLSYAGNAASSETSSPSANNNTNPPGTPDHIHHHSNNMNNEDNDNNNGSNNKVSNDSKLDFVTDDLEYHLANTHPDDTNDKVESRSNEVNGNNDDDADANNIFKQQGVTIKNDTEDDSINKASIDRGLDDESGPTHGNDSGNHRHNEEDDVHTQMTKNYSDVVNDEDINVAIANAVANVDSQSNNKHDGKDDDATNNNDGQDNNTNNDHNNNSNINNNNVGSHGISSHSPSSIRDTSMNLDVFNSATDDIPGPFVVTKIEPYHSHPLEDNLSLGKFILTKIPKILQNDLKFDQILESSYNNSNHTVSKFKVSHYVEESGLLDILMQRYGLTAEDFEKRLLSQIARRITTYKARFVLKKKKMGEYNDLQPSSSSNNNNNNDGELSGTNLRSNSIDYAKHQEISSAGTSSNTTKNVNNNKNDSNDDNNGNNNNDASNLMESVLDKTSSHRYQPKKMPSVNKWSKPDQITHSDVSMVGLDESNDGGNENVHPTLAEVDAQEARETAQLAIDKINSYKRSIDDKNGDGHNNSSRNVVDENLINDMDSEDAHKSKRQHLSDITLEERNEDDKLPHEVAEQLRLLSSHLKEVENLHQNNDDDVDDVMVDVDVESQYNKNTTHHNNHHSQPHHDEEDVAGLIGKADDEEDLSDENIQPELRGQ
# Assay: PBM E-score (8-mer binding enrichment) (E-score (-0.5 to 0.5)); higher = stronger / more preferred TF binding
# Details: protein concentration: 200 nM; construct: GST-full length
# Method: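 Universal 'all 10-mer' protein binding microarrays (Agilent AMADID 015681) probed with GST-tagged S. cerevisiae TFs (full-length or DBD) made by in vitro transcription/translation (PURExpress), about 100-200 nM. Bound TF was detected with fluorescent anti-GST. Each ungapped 8-mer (which stands for itself and its reverse complement) is scored by the PBM enrichment score (E-score), a modified Wilcoxon-Mann-Whitney statistic from -0.5 to +0.5, computed with the Universal PBM Analysis Suite. Scale: above 0.35 generally sequence-specific binding.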
row,Sequence,PBM E-score
1,CGTCGGGC,-0.072
2,GAACTAAC,0.11
3,CAGTGCCC,0.00351
4,AATACTCC,-0.0811
5,ATCCATCA,-0.0425
6,GGTCAGAC,-0.0844
7,GCCTCTAA,-0.0508
8,CGATAACC,-0.00449
9,CCTTTCCA,-0.0408
10,ATTTTGTC,0.172
11,GGCGAGAC,-0.0463
12,ACGCTAAA,0.137
13,ACCTTCAT,-0.0336
14,GGCCATCA,-0.255
15,GATCTGAA,0.0479
16,CAGTCGAA,-0.0758
17,AAGTTATT,0.0165
18,CCTTTACG,0.0646
19,AATGGAAT,-0.0193
20,CTGAAGCC,-0.125
21,GATGTCTA,0.213
22,CCTAGGAA,-0.123
23,ATAAAGTG,0.18
24,ATAGTTTC,0.196
25,CAATGTGG,-0.0134

# Some values from the entries so far.
# Entry of ATAGTTTC under PBM E-score: 0.196
# Entry of ACCTTCAT under PBM E-score: -0.0336
# Entry of GATCTGAA under PBM E-score: 0.0479
# Entry of GGTCAGAC under PBM E-score: -0.0844
# Entry of AATACTCC under PBM E-score: -0.0811

# (cont.)

row,Sequence,PBM E-score
1,ACTAGATA,0.0976
2,CAGTACGC,0.0181
3,CTGACTCA,-0.0203
4,ACGTCGCG,0.23
5,GTCATAAA,0.195
6,GACGATCA,0.226
7,CAAGTAGG,-0.217
8,GACCTCTA,0.0658
9,AAACACGC,0.0874
10,CAACTCCA,-0.163
11,AATTGGAT,0.192
12,AACATCGC,0.0589
13,GCTTTGGA,0.0202
14,CGGGACTC,-0.159
15,ATCCCTGG,-0.0203
16,ATTAAAAT,0.158
17,CTTATTCA,-0.0273
18,TAATAAGA,0.128
19,AATAACTA,0.124
20,CGTCGAGA,0.131
21,CGGAGTAA,0.0152
22,GACGTGGC,-0.121
23,AGAAATAT,0.148
24,AAAACATT,0.0563
25,CCATTAAG,-0.239

row,Sequence,PBM E-score
1,TCCCACAA,-0.0942
2,CGGTAGTC,-0.138
3,GCAATGAC,0.245
4,AGGATAAT,0.174
5,GAAGTCTA,-0.136
6,ACCAGGCG,-0.17
7,ATGCAAGA,-0.00898
8,TGTGCGAA,0.111
9,AGCATCGA,0.0175
10,AACATCTT,-0.103
11,ATTAACGG,0.126
12,GTTGAGAA,0.098
13,AGGGGGTC,-0.381
14,ATGGCCTA,-0.0511
15,GACGTGCC,-0.0215
16,TCCCTGCA,-0.169
17,GACCAATC,0.00831
18,GTACTGCA,-0.101
19,ACTGCTCT,-0.0133
20,GTGTCAGA,0.0238
21,CCCGGGAG,-0.228
22,CCCCAACC,-0.154
23,GGACGTCC,-0.0932
24,AATAGTGC,0.0751
25,CATAAGTC,-0.00466

row,Sequence,PBM E-score
1,CTACATCC,0.036
2,CAGTACAC,-0.0347
3,GAAATGCC,-0.092
4,AGAAAGAC,-0.0404
5,CAGAACAG,-0.237
6,GATTTCGA,-0.0714
7,ACTAAGAG,-0.00955
8,AGTAATAA,0.233
9,AGCGGTGA,0.23
10,AGGCCGTA,0.231
11,CGCATGCA,-0.0509
12,GTATGTCA,0.394
13,GAGCAGCC,-0.0551
14,TCTAAACA,0.0876
15,AGCCGTAA,0.193
16,CCTGCTAA,0.0331
17,GCGCACCA,-0.024
18,ACGCGGCC,-0.107
19,CGGAAGGC,-0.314
20,ATAAGAGC,-0.0255
21,GAAGACCA,-0.014
22,GAGTAGAA,-0.0575
23,ACAGCCAG,-0.107
24,ATTCATCA,0.181
25,ACTCTTCC,-0.28

row,Sequence,PBM E-score
1,AACACTGG,-0.2
2,CGATGGAA,0.079
3,ACGCAGCG,-0.162
4,CAGCCCGA,-0.277
5,AGGTAGTA,0.0867
6,CTTACGAA,0.216
7,ATGCGACG,0.199
8,AGTCATTC,0.198
9,AGGAACAC,-0.0807
10,AACCTACA,0.0827
11,CACCTAGA,-0.0355
12,TACTCGGA,0.131
13,GAGGGCAA,-0.0873
14,TACTGGCA,0.0332
15,ACAAGATC,-0.0051
16,AAGAGGAT,-0.0628
17,AAAATTGT,0.226
18,CTATGCAG,-0.0268
19,CGCGATGC,-0.0203
20,CAAATATA,0.00159
21,CAGGACGC,-0.00469
22,TGTGTCAA,-0.00278
23,CATATCGG,0.0102
24,AGGGTCCG,-0.249
25,ACAGGTGA,0.103

row,Sequence,PBM E-score
1,AGTTCCCA,0.0996
2,CTTCTCCA,-0.223
3,GCCCGCGA,-0.105
4,CAGGGGGC,-0.393
5,AGCGGTAG,-0.0407
6,CCGCGTTC,-0.031
7,GACGATGA,0.273
8,AAAATCGG,-0.00458
9,ACCTGTAT,-0.183
10,GTCCTGGA,-0.0142
11,ACTGGCCG,-0.142
12,AGGATGTA,0.0613
13,GACGTTTA,0.0137
14,CTGTCTAC,-0.0226
15,GAAAAATC,0.21
16,ACAATCTC,0.0746
17,AACTCACC,0.0628
18,CGTAGAAC,0.118
19,ATAGAAGC,0.106
20,TAAGCAAA,0.105
21,CAGTACCG,-0.149
22,GTTTGAGA,0.0182
23,GCAACGGA,0.0356
24,AGTTCCAA,-0.139
25,AATTGCAC,0.00627

row,Sequence,PBM E-score
1,GTAAGACA,0.102
2,TATTTAAA,0.214
3,AAACAAGG,-0.149
4,AATACCCA,0.00288
5,CGTACTGC,0.0469
6,GGGACCGA,-0.337
7,GGTATTAC,0.02
8,AGTCTAGG,-0.236
9,ATCCATTC,0.0787
10,AAAGCGAA,0.118
11,CATTGGGG,-0.199
12,CAGGGTTC,-0.0481
13,AAGTGATG,0.314
14,AGTGTTGA,0.0629
15,AGGGGCAA,-0.214
16,AATTCGAG,-0.0817
17,GCACCGAA,-0.0558
18,CACTCAGC,0.0359
19,ATCCTTGG,-0.289
20,AGAAAAAA,0.0788
21,CCATTTAA,0.0684
22,AAGACTGT,-0.267
23,GGATTCGA,-0.0742
24,AAGTTGAG,-0.0809
25,AACTCGTC,0.113

row,Sequence,PBM E-score
1,ACTTCTCG,0.111
2,CAGGTCGA,0.0616
3,ACGAAACC,0.196
4,ATACAACG,0.0467
5,ATCATTTC,0.312
6,AACACCAA,0.0367
7,AGTACAAG,0.0462
8,AAAGGCAC,-0.0274
9,ACAGCACG,0.0582
10,CGCGTCGA,0.121
11,ACCGAGCG,-0.183
12,ACGTACGT,0.335
13,ACTACTCA,0.213
14,CTAAAACC,-0.0918
15,CGGCCTAG,-0.141
16,GTGATGGA,0.0539
17,TCCGTGCA,0.312
18,ACATACGA,0.356
19,AGTACTGG,-0.0712
20,ACATCGTA,0.207
21,ATTAAAGA,0.174
22,TCGTTCCA,-0.0813
23,ATGTTTGC,-0.162
24,CGTTCCAC,-0.0766
25,ACACAGCG,-0.0765

row,Sequence,PBM E-score
1,AGGCCTGG,-0.236
2,TAGTCCAA,-0.00474
3,GAGTAGCA,-0.184
4,CAAGCCAA,-0.0777
5,CAACCTTA,-0.0413
6,ATAGACTC,-0.294
7,CTTAATTA,0.0662
8,CAGACTAC,-0.185
9,CAGGAATA,-0.314
10,GGTCCGTA,0.112
11,CATTTTCA,0.118
12,ACACTCCC,-0.21
13,TAAGTACA,0.0945
14,CGGACCTA,-0.0975
15,GGAATAAA,-0.0763
16,GGGTCCAA,-0.198
17,ATCATAAA,0.303
18,CCAAGTTA,-0.0409
19,TTCCGAAA,0.104
